Measured values taken from the supplement of paper PMC10849652.
This is one part of the list.

Amino acid sequences for entries named in this document (tags omitted). A change or cut given only in a name is not applied to a line headed by its entry.
UniProt Q99470: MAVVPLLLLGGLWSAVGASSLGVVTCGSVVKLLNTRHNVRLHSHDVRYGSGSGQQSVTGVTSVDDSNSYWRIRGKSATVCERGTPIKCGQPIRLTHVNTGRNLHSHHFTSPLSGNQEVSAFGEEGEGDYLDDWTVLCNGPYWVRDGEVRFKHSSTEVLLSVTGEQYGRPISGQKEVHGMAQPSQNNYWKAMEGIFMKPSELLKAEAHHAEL
UniProt Q5PRF9: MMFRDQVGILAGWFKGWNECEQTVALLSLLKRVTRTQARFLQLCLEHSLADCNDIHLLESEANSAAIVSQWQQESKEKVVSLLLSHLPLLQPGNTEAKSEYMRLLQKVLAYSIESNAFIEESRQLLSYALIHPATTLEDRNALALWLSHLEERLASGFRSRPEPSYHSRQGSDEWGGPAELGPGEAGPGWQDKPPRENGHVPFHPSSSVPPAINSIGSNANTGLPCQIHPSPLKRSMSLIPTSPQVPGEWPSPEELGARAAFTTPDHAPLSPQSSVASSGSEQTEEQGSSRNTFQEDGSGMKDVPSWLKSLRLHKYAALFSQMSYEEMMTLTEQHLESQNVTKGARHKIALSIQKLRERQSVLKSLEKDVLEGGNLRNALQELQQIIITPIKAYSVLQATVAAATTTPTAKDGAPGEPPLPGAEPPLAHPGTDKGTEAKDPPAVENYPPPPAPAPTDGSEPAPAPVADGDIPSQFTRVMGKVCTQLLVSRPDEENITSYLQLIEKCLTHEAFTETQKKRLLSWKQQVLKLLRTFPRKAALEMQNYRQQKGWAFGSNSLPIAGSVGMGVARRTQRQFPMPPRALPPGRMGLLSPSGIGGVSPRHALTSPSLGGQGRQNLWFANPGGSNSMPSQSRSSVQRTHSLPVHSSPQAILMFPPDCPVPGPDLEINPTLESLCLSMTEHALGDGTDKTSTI
UniProt Q92503: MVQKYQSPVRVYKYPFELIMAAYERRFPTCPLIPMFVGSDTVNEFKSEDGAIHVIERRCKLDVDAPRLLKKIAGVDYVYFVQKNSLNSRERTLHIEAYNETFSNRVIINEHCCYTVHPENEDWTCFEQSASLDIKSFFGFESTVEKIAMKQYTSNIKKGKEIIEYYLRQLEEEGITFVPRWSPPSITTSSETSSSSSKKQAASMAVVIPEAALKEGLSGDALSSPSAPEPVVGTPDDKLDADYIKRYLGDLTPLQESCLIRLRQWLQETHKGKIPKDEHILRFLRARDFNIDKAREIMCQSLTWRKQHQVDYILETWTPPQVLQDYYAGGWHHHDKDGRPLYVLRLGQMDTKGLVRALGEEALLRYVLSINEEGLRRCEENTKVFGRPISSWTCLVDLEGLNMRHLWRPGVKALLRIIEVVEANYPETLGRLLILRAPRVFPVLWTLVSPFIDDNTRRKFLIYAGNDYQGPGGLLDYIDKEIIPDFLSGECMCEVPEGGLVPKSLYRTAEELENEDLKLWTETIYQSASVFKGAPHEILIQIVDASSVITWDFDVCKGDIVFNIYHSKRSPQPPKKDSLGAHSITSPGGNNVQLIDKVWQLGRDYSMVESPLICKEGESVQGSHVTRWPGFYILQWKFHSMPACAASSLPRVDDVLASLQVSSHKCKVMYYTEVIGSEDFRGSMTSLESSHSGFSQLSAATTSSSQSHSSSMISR
UniProt O75056, whole entry, looked up: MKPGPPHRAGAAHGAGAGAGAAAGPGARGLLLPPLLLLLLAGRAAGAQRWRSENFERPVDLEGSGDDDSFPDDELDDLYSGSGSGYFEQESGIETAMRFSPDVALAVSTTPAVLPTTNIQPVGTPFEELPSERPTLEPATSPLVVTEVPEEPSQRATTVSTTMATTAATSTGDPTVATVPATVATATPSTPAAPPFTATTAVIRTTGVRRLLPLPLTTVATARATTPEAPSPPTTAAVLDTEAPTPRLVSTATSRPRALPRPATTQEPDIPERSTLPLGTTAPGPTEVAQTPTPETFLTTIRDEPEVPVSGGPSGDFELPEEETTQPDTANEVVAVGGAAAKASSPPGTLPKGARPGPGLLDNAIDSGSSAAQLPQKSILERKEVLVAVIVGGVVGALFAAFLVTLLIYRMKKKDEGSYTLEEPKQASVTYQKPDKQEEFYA
UniProt Q9HCY8: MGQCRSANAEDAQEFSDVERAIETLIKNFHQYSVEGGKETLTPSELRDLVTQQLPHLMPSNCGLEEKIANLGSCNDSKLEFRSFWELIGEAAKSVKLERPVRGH
UniProt Q9UPN6: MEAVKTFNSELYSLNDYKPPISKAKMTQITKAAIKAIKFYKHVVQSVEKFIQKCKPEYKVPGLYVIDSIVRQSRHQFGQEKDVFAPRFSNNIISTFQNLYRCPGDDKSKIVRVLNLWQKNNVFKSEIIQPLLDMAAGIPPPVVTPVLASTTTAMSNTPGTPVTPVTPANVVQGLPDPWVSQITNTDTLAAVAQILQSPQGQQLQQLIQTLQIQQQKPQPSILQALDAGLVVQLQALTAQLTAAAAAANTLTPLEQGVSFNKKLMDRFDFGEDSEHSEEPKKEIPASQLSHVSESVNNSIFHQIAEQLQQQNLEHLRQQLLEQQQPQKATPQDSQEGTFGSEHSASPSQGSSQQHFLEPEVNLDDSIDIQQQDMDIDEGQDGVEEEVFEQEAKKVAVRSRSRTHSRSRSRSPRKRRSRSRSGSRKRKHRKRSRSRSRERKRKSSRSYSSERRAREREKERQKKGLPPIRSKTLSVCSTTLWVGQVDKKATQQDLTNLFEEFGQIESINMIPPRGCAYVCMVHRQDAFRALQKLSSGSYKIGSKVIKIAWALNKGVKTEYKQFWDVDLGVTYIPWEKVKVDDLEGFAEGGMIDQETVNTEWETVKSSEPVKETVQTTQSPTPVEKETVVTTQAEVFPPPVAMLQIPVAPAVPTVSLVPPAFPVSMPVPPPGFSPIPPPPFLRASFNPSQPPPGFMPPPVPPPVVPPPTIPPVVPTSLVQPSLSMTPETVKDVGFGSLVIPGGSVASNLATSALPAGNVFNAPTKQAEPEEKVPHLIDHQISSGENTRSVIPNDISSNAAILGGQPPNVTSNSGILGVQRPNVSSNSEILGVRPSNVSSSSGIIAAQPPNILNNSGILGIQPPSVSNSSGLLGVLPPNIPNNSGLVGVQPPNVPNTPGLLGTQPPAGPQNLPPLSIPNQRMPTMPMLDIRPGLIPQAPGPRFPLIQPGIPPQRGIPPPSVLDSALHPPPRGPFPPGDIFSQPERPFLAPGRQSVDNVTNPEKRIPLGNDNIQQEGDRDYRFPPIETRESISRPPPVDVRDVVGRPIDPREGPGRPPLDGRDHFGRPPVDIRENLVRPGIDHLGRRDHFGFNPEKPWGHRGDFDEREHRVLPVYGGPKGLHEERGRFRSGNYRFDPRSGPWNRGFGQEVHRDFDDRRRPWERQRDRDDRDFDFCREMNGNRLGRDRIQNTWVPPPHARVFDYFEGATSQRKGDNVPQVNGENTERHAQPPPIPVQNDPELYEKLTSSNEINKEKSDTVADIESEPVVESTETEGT
UniProt Q7L099: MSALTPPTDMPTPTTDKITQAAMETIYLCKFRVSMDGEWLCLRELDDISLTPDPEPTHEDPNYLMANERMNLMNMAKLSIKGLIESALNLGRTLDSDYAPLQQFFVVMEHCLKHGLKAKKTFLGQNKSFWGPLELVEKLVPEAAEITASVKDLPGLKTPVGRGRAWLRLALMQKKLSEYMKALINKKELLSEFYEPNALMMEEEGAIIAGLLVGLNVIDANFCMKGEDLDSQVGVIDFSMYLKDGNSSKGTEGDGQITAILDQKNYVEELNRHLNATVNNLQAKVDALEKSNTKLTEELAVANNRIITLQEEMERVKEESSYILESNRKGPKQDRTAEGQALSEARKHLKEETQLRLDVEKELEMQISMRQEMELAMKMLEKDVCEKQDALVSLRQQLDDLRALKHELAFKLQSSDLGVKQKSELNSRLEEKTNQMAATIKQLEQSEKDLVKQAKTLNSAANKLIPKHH
UniProt Q86SQ7: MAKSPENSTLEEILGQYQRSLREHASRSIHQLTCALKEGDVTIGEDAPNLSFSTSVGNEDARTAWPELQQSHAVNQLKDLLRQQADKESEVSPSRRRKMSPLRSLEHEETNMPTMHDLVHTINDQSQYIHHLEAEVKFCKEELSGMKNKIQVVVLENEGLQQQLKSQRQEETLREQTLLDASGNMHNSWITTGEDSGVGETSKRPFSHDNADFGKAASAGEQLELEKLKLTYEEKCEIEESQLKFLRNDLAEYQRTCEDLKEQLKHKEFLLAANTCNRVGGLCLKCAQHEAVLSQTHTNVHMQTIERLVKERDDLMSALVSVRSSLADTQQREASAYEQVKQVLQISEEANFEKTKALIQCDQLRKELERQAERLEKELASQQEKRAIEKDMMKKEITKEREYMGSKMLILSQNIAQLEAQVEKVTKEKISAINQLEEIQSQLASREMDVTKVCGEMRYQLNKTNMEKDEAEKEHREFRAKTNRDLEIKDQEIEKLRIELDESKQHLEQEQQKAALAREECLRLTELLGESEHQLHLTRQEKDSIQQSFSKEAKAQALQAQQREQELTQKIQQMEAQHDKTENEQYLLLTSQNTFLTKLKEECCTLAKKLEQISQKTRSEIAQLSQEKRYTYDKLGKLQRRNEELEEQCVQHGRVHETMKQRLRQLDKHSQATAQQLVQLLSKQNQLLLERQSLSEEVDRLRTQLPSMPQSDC
UniProt Q5VUM1: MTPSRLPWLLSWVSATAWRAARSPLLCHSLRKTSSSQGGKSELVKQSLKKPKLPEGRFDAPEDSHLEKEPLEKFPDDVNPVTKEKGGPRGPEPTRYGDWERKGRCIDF
UniProt P48443: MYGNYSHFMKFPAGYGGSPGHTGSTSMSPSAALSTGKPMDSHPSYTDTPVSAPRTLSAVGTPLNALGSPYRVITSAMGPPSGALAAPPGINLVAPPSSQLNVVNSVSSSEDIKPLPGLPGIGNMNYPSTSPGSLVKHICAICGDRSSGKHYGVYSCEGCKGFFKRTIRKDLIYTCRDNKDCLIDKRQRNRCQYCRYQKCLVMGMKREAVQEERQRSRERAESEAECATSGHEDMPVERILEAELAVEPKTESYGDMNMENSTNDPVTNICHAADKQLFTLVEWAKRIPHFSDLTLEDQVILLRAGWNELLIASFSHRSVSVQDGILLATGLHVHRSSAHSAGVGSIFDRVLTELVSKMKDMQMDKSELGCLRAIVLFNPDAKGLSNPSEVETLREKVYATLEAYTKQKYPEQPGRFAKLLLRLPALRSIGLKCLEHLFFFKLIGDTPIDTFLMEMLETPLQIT
UniProt Q14684: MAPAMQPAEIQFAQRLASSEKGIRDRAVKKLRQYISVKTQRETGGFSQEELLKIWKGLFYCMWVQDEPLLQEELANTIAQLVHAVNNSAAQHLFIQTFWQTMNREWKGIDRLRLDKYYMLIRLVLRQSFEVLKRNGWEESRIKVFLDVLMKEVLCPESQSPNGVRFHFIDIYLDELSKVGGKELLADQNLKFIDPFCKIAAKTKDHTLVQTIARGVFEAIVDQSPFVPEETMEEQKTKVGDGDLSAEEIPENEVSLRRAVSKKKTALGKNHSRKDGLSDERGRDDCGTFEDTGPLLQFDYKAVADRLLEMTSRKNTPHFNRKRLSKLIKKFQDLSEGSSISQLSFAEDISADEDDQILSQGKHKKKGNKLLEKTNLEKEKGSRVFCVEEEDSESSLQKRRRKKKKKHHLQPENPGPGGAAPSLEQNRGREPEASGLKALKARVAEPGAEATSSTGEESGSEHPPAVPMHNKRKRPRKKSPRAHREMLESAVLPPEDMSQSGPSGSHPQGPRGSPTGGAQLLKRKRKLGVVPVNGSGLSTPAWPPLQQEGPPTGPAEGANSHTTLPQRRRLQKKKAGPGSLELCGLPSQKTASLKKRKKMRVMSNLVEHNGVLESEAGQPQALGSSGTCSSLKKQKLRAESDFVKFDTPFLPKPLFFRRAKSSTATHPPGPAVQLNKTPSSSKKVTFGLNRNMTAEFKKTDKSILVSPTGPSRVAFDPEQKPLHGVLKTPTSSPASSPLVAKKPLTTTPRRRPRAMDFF
UniProt Q9BWG6: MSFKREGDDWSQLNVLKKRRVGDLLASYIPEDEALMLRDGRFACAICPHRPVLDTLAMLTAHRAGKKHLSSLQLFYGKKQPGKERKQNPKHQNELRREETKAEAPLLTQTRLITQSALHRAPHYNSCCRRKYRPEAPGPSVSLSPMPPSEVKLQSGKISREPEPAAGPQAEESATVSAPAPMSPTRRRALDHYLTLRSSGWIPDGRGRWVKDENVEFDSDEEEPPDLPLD
UniProt Q9NPB0: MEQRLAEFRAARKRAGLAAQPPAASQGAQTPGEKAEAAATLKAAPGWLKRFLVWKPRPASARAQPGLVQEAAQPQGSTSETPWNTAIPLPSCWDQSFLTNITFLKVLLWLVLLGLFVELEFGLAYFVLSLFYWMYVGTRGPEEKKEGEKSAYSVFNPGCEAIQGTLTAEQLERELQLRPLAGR
UniProt O75446: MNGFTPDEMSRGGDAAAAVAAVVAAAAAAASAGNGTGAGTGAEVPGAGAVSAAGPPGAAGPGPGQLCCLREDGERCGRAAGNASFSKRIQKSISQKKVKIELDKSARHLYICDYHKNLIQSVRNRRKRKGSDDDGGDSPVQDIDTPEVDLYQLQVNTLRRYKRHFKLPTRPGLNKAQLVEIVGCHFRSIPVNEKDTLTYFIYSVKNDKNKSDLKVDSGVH

compound: Cc1sc2c(c1C)C(c1ccc(Cl)cc1)=N[C@@H](CC(=O)OC(C)(C)C)c1nnc(C)n1-2; experiment: log2 fold change, soluble protein after heating vs DMSO (PISA); higher = thermal stabilisation; K562 cells, 10 uM, 30 min; active = over 0.2 and 3.5 SD of the protein, either way, in both replicates (recomputed)
How it was run: (§1)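 Aliquots of K562 cells (2×10^6 cells/mL) treated with 10 μM compound for 30 min were heated for 3 min over 48°C-58°C. After pooling and extraction in PBS with 0.5% NP-40 at 4°C, soluble protein from a 21,000xg, 90 min spin was quantified by TMTpro 16plex LC-MS/MS with channel sums equalised. Thermal stability is expressed against control samples, from duplicates, as a log2 fold change.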

| Target | log2 fold change |
| --- | --- |
| RSL24D1 (UniProt Q9UHA3) | inactive: 0.152 |
| SDF2 (UniProt Q99470) | inactive: -0.577 |
| SAMD4B (UniProt Q5PRF9) | inactive: 0.039 |
| SDCBP isoform 2 (UniProt O00560) | inactive: 0.169 |
| SEC14L1 isoform 2 (UniProt Q92503) | inactive: -0.076 |
| SDC3 (UniProt O75056) | inactive: -0.044 |
| S100A14 (UniProt Q9HCY8) | inactive: -0.405 |
| RTL10 (UniProt Q7L3V2) | inactive: -0.069 |
| S100A6 (UniProt P06703) | inactive: -0.181 |
| SAMSN1 isoform 3 (UniProt Q9NSI8) | inactive: -0.01 |
| RTN4 isoform 5 (UniProt Q9NQC3) | inactive: -0.049 |
| S100A10 (UniProt P60903) | inactive: -0.127 |
| SEC11A isoform 3 (UniProt P67812) | inactive: -0.048 |
| SCAF8 isoform 2 (UniProt Q9UPN6) | inactive: -0.016 |
| RUFY3 isoform 3 (UniProt Q7L099) | inactive: 0.016 |
| SEC22A (UniProt Q96IW7) | inactive: -0.011 |
| SDCCAG8 (UniProt Q86SQ7) | inactive: 0.064 |
| SAMD4A (UniProt Q9UPU9) | inactive: 0.313 |
| SDHAF4 (UniProt Q5VUM1) | inactive: -0.025 |
| S100A16 (UniProt Q96FQ6) | inactive: -0.084 |
| RXRG (UniProt P48443) | inactive: -0.278 |
| SCGB2A2 (UniProt Q13296) | inactive: -0.336 |
| SAV1 (UniProt Q9H4B6) | inactive: 0.018 |
| RRP1B (UniProt Q14684) | inactive: 0.075 |
| SCRIB isoform 3 (UniProt Q14160) | inactive: -0.033 |
| SCNM1 (UniProt Q9BWG6) | inactive: 0.071 |

compound: c1ccc([C@@H]2C[C@H]2NC2CCNCC2)cc1; experiment: as above
How it was run: as §1

| Target | log2 fold change |
| --- | --- |
| SAMD4B (UniProt Q5PRF9) | inactive: 0.058 |
| SEC14L1 isoform 2 (UniProt Q92503) | inactive: 0.028 |
| SDHB, A0A087WXX8 | inactive: 0.093 |
| SDC3 (UniProt O75056) | inactive: 0.052 |
| RTL10 (UniProt Q7L3V2) | inactive: 0.031 |
| S100A6 (UniProt P06703) | inactive: 0 |
| SAMSN1 isoform 3 (UniProt Q9NSI8) | inactive: -0.01 |
| RTN4 isoform 5 (UniProt Q9NQC3) | inactive: 0.117 |
| SAP130 isoform 3 (UniProt Q9H0E3) | inactive: -0.168 |
| S100A10 (UniProt P60903) | inactive: -0.01 |
| SEC11A isoform 3 (UniProt P67812) | inactive: 0.003 |
| SAYSD1 (UniProt Q9NPB0) | inactive: -0.095 |
| SCAF8 isoform 2 (UniProt Q9UPN6) | inactive: 0.012 |
| RUFY3 isoform 3 (UniProt Q7L099) | inactive: 0.029 |
| SCAI isoform 2 (UniProt Q8N9R8) | inactive: 0.098 |
| SEC22A (UniProt Q96IW7) | inactive: 0.002 |
| SDHAF4 (UniProt Q5VUM1) | inactive: 0.073 |
| SAP30 (UniProt O75446) | inactive: -0.032 |
| SDHB, A0A087WWT1 | inactive: 0.108 |
| SCRIB isoform 3 (UniProt Q14160) | inactive: -0.446 |
| SAE1 (UniProt M0R286) | inactive: 0.245 |
| SDAD1 (UniProt Q9NVU7) | inactive: -0.015 |
